Assay [1] deals with endogenous AKT1 (human (endogenous in SK-N-BE(2), NGP and CHLA20)), P31749. The assay can be described thus: co-IP; IP of endogenous AKT1, blots for PDK1 and SIN1; SK-N-BE(2) and NGP cells with or without PRMT5 knockdown; CHLA20 and NGP cells treated with DMSO or GSK591. Conditions: remark: other sources report otherwise.
For assay [2], the target named is HA-tagged AKT1 wild type (pCDNA3/Flag-HA-AKT1) (human), P31749. Put plainly: co-IP; HA-tagged AKT1 wild type or R15K transfected into CHLA20 cells, with or without EGF stimulation; precipitated by HA beads, blots for PDK1 and SIN1. The settings on record: remark: other sources report otherwise.
In assay [3] the target is HA-tagged AKT1-R15K mutant (pCDNA3/Flag-HA-AKT1-R15K) (human) (UniProt P31749). The description is as above.

By UniProt entry, the sequences of proteins in these tests, tags left out. Where a name states a change or a piece, a line headed by the entry shows the natural chain unless it says otherwise.
UniProt P31749: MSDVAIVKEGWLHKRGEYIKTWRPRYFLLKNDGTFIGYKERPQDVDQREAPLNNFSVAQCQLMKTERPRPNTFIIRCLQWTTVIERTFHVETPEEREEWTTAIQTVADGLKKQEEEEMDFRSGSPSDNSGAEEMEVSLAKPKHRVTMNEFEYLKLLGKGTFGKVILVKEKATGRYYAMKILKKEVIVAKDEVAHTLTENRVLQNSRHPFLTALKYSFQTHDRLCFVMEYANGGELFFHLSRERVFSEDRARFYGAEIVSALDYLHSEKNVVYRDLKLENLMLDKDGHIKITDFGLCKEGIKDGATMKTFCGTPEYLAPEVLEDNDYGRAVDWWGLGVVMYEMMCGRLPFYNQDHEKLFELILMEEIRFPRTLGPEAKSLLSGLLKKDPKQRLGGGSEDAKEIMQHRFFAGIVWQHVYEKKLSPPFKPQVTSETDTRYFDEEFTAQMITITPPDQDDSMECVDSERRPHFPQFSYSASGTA

Results are given in words; binding and its absence hold for the method and conditions named. In cells and extracts the contact can be indirect. Some results given as binding are weak or reduced against the parent protein; the word gives no strength.

B1: PDK1, O15530 1-556 (protein)
chain: MARTTSQLYDAVPIQSSVVLCSCPSPSMVRTQTESSTPPGIPGGSRQGPAMDGTAAEPRPGAGSLQHAQPPPQPRKKRPEDFKFGKILGEGSFSTVVLARELATSREYAIKILEKRHIIKENKVPYVTRERDVMSRLDHPFFVKLYFTFQDDEKLYFGLSYAKNGELLKYIRKIGSFDETCTRFYTAEIVSALEYLHGKGIIHRDLKPENILLNEDMHIQITDFGTAKVLSPESKQARANSFVGTAQYVSPELLTEKSACKSSDLWALGCIIYQLVAGLPPFRAGNEYLIFQKIIKLEYDFPEKFFPKARDLVEKLLVLDATKRLGCEEMEGYGPLKAHPFFESVTWENLHQQTPPKLTAYLPAMSEDDEDCYGNYDNLLSQFGCMQVSSSSSSHSLSASDTGLPQRSGSNIEQYIHDLDSNSFELDLQFSEDEKRLLLEKQAGGNPWHQFVENNLILKMGPVDKRKGLFARRRQLLLTEGPHLYYVDPVNKVLKGEIPWSQELRPEAKNFKTFFVHTPNRTYYLMDPSGNAHKWCRKIQEVWRQRYQSHPDAAVQ
With B1, the binding entry in assay [1] and in assay [2] was “binds” throughout.

B2: PDK1 (protein, UniProt O15530 1-556)
chain: MARTTSQLYDAVPIQSSVVLCSCPSPSMVRTQTESSTPPGIPGGSRQGPAMDGTAAEPRPGAGSLQHAQPPPQPRKKRPEDFKFGKILGEGSFSTVVLARELATSREYAIKILEKRHIIKENKVPYVTRERDVMSRLDHPFFVKLYFTFQDDEKLYFGLSYAKNGELLKYIRKIGSFDETCTRFYTAEIVSALEYLHGKGIIHRDLKPENILLNEDMHIQITDFGTAKVLSPESKQARANSFVGTAQYVSPELLTEKSACKSSDLWALGCIIYQLVAGLPPFRAGNEYLIFQKIIKLEYDFPEKFFPKARDLVEKLLVLDATKRLGCEEMEGYGPLKAHPFFESVTWENLHQQTPPKLTAYLPAMSEDDEDCYGNYDNLLSQFGCMQVSSSSSSHSLSASDTGLPQRSGSNIEQYIHDLDSNSFELDLQFSEDEKRLLLEKQAGGNPWHQFVENNLILKMGPVDKRKGLFARRRQLLLTEGPHLYYVDPVNKVLKGEIPWSQELRPEAKNFKTFFVHTPNRTYYLMDPSGNAHKWCRKIQEVWRQRYQSHPDAAVQ
Take B2: in assay [3], the binding result is “no binding”.

Values taken from PMC9270419.
